# The other results are listed elsewhere or left out.
# Protein sequences, listed by entry. Tags and fused reporters are not part of them. Lines headed by an entry give the natural chain unless they say otherwise; changes in a name come on top.
# UniProt P28039: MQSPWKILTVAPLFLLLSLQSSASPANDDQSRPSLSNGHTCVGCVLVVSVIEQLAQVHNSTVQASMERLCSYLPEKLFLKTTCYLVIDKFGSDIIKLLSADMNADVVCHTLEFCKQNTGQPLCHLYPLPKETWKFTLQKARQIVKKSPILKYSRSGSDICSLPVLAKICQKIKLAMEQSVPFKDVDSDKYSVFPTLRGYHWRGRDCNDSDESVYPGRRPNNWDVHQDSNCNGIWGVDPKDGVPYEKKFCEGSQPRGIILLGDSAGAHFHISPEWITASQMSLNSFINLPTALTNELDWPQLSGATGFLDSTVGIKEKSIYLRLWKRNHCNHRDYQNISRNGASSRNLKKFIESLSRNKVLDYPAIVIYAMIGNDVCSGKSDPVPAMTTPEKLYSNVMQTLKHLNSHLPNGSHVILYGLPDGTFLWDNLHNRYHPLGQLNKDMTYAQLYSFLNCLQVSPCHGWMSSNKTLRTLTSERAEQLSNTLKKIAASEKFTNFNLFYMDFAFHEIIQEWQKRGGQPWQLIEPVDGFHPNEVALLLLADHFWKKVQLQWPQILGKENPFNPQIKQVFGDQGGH
# UniProt Q8IV38: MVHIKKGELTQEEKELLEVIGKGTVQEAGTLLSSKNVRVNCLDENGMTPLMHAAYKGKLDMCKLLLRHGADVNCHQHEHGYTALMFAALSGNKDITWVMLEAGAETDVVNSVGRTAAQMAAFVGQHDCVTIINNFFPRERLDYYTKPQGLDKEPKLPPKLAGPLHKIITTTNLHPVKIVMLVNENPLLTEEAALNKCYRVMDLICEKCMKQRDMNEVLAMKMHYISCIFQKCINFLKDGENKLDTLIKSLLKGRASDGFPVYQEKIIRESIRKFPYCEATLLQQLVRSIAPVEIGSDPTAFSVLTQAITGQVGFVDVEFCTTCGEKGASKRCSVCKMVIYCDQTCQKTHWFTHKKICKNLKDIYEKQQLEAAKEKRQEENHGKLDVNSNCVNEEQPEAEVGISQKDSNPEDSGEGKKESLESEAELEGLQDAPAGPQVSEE
# UniProt P27695, whole entry, looked up: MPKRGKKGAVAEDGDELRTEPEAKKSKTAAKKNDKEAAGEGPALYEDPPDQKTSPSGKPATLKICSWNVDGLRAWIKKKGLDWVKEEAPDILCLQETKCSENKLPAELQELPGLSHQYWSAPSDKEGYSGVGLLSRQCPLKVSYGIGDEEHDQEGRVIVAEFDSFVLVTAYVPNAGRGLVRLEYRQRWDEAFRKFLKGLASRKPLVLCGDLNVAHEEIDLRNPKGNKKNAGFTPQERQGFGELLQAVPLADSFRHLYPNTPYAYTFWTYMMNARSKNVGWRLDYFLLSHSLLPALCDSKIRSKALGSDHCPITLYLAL
# UniProt O75843: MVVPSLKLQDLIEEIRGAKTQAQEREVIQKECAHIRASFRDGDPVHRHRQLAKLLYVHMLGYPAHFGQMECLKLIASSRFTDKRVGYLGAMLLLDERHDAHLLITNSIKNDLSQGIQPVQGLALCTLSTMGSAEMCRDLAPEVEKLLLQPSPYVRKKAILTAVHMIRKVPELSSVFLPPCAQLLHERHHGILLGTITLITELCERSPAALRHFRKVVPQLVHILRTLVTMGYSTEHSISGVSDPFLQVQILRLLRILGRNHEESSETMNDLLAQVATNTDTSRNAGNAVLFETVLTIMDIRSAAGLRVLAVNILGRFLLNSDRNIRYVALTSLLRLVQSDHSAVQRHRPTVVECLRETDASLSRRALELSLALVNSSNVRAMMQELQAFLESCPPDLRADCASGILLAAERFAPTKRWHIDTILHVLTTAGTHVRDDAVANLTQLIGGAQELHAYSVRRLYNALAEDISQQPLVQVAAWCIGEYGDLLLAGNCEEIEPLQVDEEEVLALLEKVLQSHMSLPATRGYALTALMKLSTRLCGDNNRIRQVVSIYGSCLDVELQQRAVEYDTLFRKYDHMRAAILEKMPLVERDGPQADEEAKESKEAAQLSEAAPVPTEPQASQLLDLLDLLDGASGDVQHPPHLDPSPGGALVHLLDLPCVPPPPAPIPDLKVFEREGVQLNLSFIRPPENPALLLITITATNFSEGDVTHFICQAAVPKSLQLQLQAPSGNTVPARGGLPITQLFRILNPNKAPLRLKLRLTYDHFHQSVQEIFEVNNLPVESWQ
# UniProt Q9H8Y5: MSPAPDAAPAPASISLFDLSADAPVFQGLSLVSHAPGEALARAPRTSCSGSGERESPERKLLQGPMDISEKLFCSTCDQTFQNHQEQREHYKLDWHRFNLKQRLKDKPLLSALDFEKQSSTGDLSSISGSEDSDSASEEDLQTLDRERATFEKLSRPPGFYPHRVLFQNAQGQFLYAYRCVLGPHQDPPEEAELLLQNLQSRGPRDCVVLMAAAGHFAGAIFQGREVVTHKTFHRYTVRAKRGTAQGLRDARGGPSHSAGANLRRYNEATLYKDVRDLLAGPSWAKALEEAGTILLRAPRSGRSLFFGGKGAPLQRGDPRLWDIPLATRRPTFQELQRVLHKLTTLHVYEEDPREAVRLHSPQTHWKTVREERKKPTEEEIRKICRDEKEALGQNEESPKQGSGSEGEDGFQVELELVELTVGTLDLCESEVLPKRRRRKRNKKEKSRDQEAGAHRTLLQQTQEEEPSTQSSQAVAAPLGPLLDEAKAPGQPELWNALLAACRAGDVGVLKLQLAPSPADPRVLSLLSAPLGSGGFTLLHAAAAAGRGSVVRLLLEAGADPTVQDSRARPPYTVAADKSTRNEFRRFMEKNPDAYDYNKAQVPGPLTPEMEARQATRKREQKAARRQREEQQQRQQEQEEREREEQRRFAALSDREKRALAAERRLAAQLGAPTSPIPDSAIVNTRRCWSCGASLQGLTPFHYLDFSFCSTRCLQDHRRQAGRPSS
# UniProt Q96CW1: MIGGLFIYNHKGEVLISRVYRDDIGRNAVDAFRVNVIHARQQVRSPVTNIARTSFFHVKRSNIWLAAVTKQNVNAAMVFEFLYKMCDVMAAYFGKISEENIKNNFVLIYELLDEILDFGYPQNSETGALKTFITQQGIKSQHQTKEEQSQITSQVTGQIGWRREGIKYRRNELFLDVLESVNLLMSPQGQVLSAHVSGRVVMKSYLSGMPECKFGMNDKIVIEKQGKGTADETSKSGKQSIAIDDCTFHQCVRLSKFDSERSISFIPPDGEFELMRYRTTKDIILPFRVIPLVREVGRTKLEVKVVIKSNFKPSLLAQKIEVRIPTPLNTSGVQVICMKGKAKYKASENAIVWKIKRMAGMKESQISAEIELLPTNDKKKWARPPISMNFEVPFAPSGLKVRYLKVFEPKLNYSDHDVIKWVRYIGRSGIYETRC
# UniProt Q06481, whole entry, looked up: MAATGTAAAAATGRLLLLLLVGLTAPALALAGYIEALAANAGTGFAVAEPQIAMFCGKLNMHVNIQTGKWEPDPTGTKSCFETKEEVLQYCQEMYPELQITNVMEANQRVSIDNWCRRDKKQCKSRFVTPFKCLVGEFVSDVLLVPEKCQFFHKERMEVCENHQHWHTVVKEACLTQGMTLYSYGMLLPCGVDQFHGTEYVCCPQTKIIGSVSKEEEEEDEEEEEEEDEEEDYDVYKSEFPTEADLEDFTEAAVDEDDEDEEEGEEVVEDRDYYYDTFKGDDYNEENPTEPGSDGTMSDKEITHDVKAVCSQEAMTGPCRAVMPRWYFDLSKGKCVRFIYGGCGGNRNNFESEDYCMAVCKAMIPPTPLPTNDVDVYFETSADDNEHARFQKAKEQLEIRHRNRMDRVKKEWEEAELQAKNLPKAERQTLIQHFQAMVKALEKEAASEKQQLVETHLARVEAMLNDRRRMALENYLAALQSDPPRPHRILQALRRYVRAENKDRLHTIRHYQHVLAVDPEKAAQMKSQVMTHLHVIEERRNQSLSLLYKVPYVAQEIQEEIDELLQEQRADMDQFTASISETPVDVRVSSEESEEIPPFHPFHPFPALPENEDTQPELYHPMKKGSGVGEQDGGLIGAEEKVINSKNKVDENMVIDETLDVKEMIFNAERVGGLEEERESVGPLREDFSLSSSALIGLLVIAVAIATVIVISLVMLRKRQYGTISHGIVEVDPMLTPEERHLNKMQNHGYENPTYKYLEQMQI
# UniProt Q10567: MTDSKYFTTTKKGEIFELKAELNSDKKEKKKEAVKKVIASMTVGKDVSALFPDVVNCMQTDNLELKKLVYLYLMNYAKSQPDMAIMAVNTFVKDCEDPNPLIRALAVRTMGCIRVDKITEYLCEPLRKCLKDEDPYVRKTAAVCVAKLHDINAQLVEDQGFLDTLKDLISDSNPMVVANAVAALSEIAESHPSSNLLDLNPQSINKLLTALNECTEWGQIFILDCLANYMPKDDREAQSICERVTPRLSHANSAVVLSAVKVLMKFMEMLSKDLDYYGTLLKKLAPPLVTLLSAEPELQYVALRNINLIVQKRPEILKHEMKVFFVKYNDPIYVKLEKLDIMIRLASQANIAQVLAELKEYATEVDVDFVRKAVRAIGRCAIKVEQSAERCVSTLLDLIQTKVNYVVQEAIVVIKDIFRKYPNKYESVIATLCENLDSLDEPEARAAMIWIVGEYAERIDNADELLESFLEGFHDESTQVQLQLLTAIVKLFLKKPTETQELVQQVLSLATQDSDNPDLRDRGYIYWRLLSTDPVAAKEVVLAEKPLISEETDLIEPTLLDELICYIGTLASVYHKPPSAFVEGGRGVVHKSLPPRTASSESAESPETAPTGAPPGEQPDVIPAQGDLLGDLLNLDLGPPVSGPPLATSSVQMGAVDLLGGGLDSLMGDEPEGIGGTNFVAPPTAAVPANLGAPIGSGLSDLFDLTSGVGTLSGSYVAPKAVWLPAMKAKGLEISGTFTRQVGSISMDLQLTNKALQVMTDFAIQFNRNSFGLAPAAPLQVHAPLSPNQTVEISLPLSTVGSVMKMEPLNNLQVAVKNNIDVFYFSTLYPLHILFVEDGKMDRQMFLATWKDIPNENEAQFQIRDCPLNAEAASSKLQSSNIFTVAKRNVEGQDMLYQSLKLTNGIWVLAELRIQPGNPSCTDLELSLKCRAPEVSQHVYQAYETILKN
# UniProt O14727: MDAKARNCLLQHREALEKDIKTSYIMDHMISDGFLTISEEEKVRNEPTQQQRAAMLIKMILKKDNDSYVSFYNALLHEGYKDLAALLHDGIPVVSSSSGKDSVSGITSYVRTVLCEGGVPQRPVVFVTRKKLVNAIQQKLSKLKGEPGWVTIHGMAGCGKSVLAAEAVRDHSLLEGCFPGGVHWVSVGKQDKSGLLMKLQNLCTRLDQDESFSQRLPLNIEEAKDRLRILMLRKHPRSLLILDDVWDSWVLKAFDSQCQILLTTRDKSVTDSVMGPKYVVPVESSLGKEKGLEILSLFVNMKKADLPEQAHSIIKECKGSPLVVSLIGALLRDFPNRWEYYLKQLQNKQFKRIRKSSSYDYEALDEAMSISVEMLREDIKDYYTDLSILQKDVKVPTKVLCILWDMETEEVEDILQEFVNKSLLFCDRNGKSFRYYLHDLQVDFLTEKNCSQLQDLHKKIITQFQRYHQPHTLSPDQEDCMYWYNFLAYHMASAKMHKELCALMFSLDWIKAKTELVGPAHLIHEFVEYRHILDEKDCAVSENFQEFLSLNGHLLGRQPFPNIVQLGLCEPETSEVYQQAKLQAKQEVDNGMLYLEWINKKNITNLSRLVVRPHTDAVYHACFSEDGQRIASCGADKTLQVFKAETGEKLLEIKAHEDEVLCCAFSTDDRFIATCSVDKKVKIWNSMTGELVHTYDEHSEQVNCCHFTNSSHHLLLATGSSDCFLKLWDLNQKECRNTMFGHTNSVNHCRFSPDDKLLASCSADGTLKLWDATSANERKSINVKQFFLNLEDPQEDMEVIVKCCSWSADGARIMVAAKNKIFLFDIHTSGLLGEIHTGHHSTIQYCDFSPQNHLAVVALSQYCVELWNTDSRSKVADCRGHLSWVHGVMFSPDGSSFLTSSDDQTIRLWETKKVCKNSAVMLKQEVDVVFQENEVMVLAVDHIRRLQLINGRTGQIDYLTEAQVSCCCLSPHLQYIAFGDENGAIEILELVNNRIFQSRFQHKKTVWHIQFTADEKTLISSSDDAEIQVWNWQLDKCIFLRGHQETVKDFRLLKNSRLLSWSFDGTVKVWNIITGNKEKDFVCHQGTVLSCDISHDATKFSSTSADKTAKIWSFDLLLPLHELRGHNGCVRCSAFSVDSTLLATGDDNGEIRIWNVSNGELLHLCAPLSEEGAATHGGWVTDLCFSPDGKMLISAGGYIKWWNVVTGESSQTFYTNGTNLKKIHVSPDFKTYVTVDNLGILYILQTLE
# UniProt Q92688: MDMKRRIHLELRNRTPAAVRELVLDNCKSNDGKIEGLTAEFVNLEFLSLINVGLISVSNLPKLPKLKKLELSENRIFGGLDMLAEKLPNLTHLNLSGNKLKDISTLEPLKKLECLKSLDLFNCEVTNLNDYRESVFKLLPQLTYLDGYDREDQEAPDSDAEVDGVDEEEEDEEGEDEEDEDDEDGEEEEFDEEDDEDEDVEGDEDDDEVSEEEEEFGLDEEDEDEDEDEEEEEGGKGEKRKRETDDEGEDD
# Compound: CC1Cc2ccccc2N1C(=O)C1CCCN(C1)C(=O)CCl (mixture of isomers) [TRIM25 ligand 11 (diastereomer mixture)]
# Assay: probe-labelled cysteine peptide fold change vs DMSO (competition) (log2 fold change); higher = less target engagement (more negative = stronger competition)
# Settings: THP-1, incubation time: 4 h
# 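Also: competitive chemoproteomic profiling in live THP-1 cells with an iodoacetamide desthiobiotin (IA-DTB) probe, comparing probe-labelled peptide intensities in compound-treated cells against DMSO-treated controls.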
Target,probe-labelled cysteine peptide fold change (10 µM),probe-labelled cysteine peptide fold change (50 µM)
API5_Q9BZZ5_71_HFPELADSAINAQLDLCEDEDVSIRR (UniProt Q9BZZ5),0.0516,0.106
AP3D1_O14617_60_ANAVCK (UniProt O14617),0.135,0.269
ANKRD28_O15084_201_LLVSHGAEVTCK (UniProt O15084),0.0847,0.138
ANKHD1_Q8IWZ3_1390_EVNQFPSDIECMR (UniProt Q8IWZ3),0.119,0.252
ANKRD17_O75179_1418_EVNQFPSDSECMR (UniProt O75179),0.0644,0.0601
AP5M1_Q9H0R1_354_NNFEFCEAHIPFYNR (UniProt Q9H0R1),0.0151,0.0972
AP2A1_O95782_283_LVECLETVLNK (UniProt O95782),-0.127,-0.153
AP2A2_O94973_330_ACNQLGQFLQHR (UniProt O94973),-0.0574,0.0315
AOAH_P28039_329_NHCNHR (UniProt P28039),0.0863,0.113
AOAH_P28039_329_RNHCNHR (UniProt P28039),-0.034,0.167
ANKRD17_O75179_1260_NTALTLACFQGR (UniProt O75179),-0.0141,0.0193
AP3D1_O14617_935_MTCDIR (UniProt O14617),-0.0922,0.0455
ANKMY2_Q8IV38_205_VMDLICEK (UniProt Q8IV38),-0.069,0.0512
AP2A2_O94973_282_LTECLETILNK (UniProt O94973),-0.158,-0.0625
ANKRD46_Q86W74_85_FGADLLATDYQGNTALHLCGHVDTIQFLVSNGLK (UniProt Q86W74),0.103,0.205
ANKMY2_Q8IV38_41_VNCLDENGMTPLMHAAYK (UniProt Q8IV38),0.0439,-0.0309
AP2A1_O95782_129_NPTFMCLALHCIANVGSR (UniProt O95782),0.0108,0.26
APEH_P13798_149+152_HGPVYEDDCFGCLSWSHSETHLLYVAEK (UniProt P13798),-0.00181,-0.172
ANKIB1_Q9P2G1_640_ETEGGCPDTTFIEDAVHVLLK (UniProt Q9P2G1),-0.196,-0.125
ANLN_Q9NQW6_210_LANLAATICSWEDDVNHSFAK (UniProt Q9NQW6),-0.159,0.299
ANKHD1_Q8IWZ3_873_DTVSLHQQCSHR (UniProt Q8IWZ3),0.0142,-0.128

Target,probe-labelled cysteine peptide fold change (10 µM),probe-labelled cysteine peptide fold change (50 µM)
APEX1_P27695_93_EEAPDILCLQETK (UniProt P27695),-0.052,-0.254
AP2B1_P63010_144_KTAAVCVAK (UniProt P63010),-0.517,-0.385
ANKRD17_O75179_1622_ISSCSDESSNSNSSR (UniProt O75179),0.371,0.268
AP3D1_O14617_479_NGICEVLYAAAWICGEFSEHLQEPHHTLEAMLRPR (UniProt O14617),0.196,0.0418
AP2A1_O95782_492_TVFEALQAPACHENMVK (UniProt O95782),0.179,0.0904
AP5B1_Q2VPB7_420_LHLLCLLCAEEEEEEK (UniProt Q2VPB7),0.207,0.17
APEX1_P27695_208_KPLVLCGDLNVAHEEIDLR (UniProt P27695),0.0664,-0.017
AP1G2_O75843_401_ADCASGILLAAER (UniProt O75843),0.0532,0.169
ANKZF1_Q9H8Y5_180_CVLGPHQDPPEEAELLLQNLQSR (UniProt Q9H8Y5),-0.313,-0.207
AP3D1_O14617_574_ASCILQLVK (UniProt O14617),-0.039,-0.0126
AP3B1_O00203_215_STLVAGSVVMAFEEVCPDRIDLIHK (UniProt O00203),-0.0389,0.0382
AP2M1_Q96CW1_251_QSIAIDDCTFHQCVR (UniProt Q96CW1),0.0886,0.0762
ANKRD44_Q8N8A2_819_FIGNPFTPLHCAIINDHGNCASLLLGAIDSSIVSCR (UniProt Q8N8A2),0.0606,-0.103
AP2B1_P63010_391_CVSTLLDLIQTK (UniProt P63010),0.102,0.275
AP2A2_O94973_134_NPTFMGLALHCIASVGSR (UniProt O94973),0.127,0.202
APLP2_Q06481_343_FIYGGCGGNR (UniProt Q06481),-0.0583,-0.102
AP1B1_Q10567_921_IQPGNPSCTDLELSLK (UniProt Q10567),0.0204,-0.0722
APLP2_Q06481_133_CLVGEFVSDVLLVPEK (UniProt Q06481),0.0646,8.35e-05
APAF1_O14727_675_FIATCSVDKK (UniProt O14727),0.277,0.264
ANKRD17_O75179_409_ESALTLACYK (UniProt O75179),0.13,0.193
ANKRD46_Q86W74_61_GNVDICQLLHK (UniProt Q86W74),-0.0151,0.00667

# Reprinted from the entries so far for reference:
Target,probe-labelled cysteine peptide fold change (10 µM),probe-labelled cysteine peptide fold change (50 µM)
AP2A1_O95782_492_TVFEALQAPACHENMVK (UniProt O95782),0.179,0.0904
AP5B1_Q2VPB7_420_LHLLCLLCAEEEEEEK (UniProt Q2VPB7),0.207,0.17
APEX1_P27695_208_KPLVLCGDLNVAHEEIDLR (UniProt P27695),0.0664,-0.017

# (continued)

Target,probe-labelled cysteine peptide fold change (10 µM),probe-labelled cysteine peptide fold change (50 µM)
ANKFY1_Q9P2R3_742_AIDENNEPTACFLIR (UniProt Q9P2R3),0.0474,-0.187
APEH_P13798_594_DVQFAVEQVLQEEHFDASHVALMGGSHGGFISCHLIGQYPETYR (UniProt P13798),0.26,0.34
APOBEC3C_Q9NRW3_70_CFLSWFCDDILSPNTK (UniProt Q9NRW3),0.14,0.0233
ANLN_Q9NQW6_309_SCEGQNPELLPK (UniProt Q9NQW6),-0.018,-0.275
ANP32B_Q92688_27_ELVLDNCK (UniProt Q92688),-0.0549,-0.0554
ANKRD50_Q9ULJ7_941_DIVELLFSHGADVNCK (UniProt Q9ULJ7),0.0184,0.185
ANP32B_Q92688_123_SLDLFNCEVTNLNDYRESVFK (UniProt Q92688),-0.406,-0.183
ANKRD17_O75179_442_TDEMHTALMEACMDGHVEVAR (UniProt O75179),-0.00146,0.00349
AP1B1_Q10567-3_914_IQPGNPSCTLSLK (UniProt Q10567),0.162,0.142
ANKS1A_Q92625_75_GPNVNCVDSTGYTPLHHAALNGHK (UniProt Q92625),-0.0158,-0.00182
APEX2_Q9UBZ4_45_ILDELDADIVCLQETK (UniProt Q9UBZ4),-0.0134,-0.0373
ANKFY1_Q9P2R3_460_GSHTDAPDTATGNCLLQR (UniProt Q9P2R3),-0.0416,-0.142
ANKZF1_Q9H8Y5_713_CLQDHR (UniProt Q9H8Y5),0.0195,0.127
ANKRD44_Q8N8A2_368_CGIHSMFPLHLAALNAHSDCCR (UniProt Q8N8A2),-0.0477,0.0132
ANKRD44_Q8N8A2_649_TPLHASVINGHTLCLR (UniProt Q8N8A2),0.297,0.203
ANO6_Q4KMQ2_134_VHAPWEVLCTYAEIMHIK (UniProt Q4KMQ2),-0.0189,-0.111
AP3D1_O14617_1089_ICFHHHFSVVER (UniProt O14617),0.489,0.463
AP5S1_Q9NUS5_27_VLYSCVFGAEK (UniProt Q9NUS5),-0.107,-0.0101
AP2A2_O94973_396_AVDLLYAMCDR (UniProt O94973),0.145,0.253
ANKFY1_Q9P2R3_499_WGETPLHTACR (UniProt Q9P2R3),0.189,0.18
AP2B1_P63010_129_CLKDEDPYVR (UniProt P63010),-0.189,-0.166

Target,probe-labelled cysteine peptide fold change (10 µM),probe-labelled cysteine peptide fold change (50 µM)
ANKRD17_O75179_1336_FCELLIGR (UniProt O75179),0.0355,0.207
AP1G2_O75843_393_AMMQELQAFLESCPPDLR (UniProt O75843),0.31,-0.0464
APEH_P13798_361_QLGENFSGIYCSLLPLGCWSADSQR (UniProt P13798),-0.171,-0.245
ANXA5_P08758_316_ALLLLCGEDD (UniProt P08758),0.202,0.182
APBB1IP_Q7Z5R6_213_THCDCNVDWCLYEIYPELQIER (UniProt Q7Z5R6),0.00469,-0.008
ANKFY1_Q9P2R3_843_QGLTPFACAMTFK (UniProt Q9P2R3),-0.0732,-0.114
AP2M1_Q96CW1_246+251_QSIAIDDCTFHQCVR (UniProt Q96CW1),0.0346,-0.0933
ANKHD1_Q8IWZ3_1308_FCELLIHR (UniProt Q8IWZ3),-0.00633,0.106
ANXA4_P09525_108_GAGTDEGCLIEILASR (UniProt P09525),-0.0552,-0.0547
ANKRD44_Q8N8A2_547_QCLELLLER (UniProt Q8N8A2),0.182,0.355
APMAP_Q9HDC9_149_TRDDEPVCGR (UniProt Q9HDC9),0.0828,0.221
AP2A1_O95782_533_FHLCSVATR (UniProt O95782),-0.022,0.171
AP3D1_O14617_1117_SIQGHHVCLLVK (UniProt O14617),0.144,-0.172
APAF1_O14727_538_DCAVSENFQEFLSLNGHLLGR (UniProt O14727),0.0289,-0.0578
APOBEC3C_Q9NRW3_65_NQVDSETHCHAER (UniProt Q9NRW3),0.15,0.0622
APEX1_P27695_93_GLDWVKEEAPDILCLQETK (UniProt P27695),-0.447,-0.455
ANKRD16_Q6P6B7_32+43_EELQAAGGCPGPAGDTLLHCAAR (UniProt Q6P6B7),-0.232,-0.161
AP3D1_O14617_137_DLSSPSQYDTGVALTGLSCFVTPDLAR (UniProt O14617),-0.0501,-0.164
APLP2_Q06481_310_AVCSQEAMTGPCR (UniProt Q06481),-0.149,-0.154
APAF1_O14727_115_TVLCEGGVPQRPVVFVTR (UniProt O14727),-0.0697,-0.151

# Pulled one by one from above:
Target,probe-labelled cysteine peptide fold change (10 µM),probe-labelled cysteine peptide fold change (50 µM)
AP5B1_Q2VPB7_420_LHLLCLLCAEEEEEEK (UniProt Q2VPB7),0.207,0.17
APEX2_Q9UBZ4_45_ILDELDADIVCLQETK (UniProt Q9UBZ4),-0.0134,-0.0373
